Test: general procedure: Fmoc solid-phase peptide synthesis; HMP resin; DCC-mediated HOBT ester activation in NMP; HBTU/HOBt/DIEA for the glycosylated a
Conditions: whole synthesis, RP-HPLC and ESI-MS

H2N-Gly-Lys-Pro-Arg-Pro-Tyr-Ser-Pro-Arg-Pro-Thr(α-D-GalNAc)-Ser-His-Pro-Arg-Pro-Ile-Arg-Val-OH
crude HPLC purity: ˜95%

Reference: patent US6465612B1 (The Regents of the University of California, priority 1998, dated 2002)
